Assay results taken from patent US4021434A, “Sodium β-[2,6-dimethyl-3,5-bis(ethoxycarbonyl)-4-(3-nitrophenyl)-1,4-dihyd ropyridine-1-yl]ethyl sulfate” (Yamanouchi Pharmaceutical Co., Ltd., priority 1972, dated 1977).

Experiment: in vivo
Conditions: mouse, mice
From the text: Experiment 2: Acute toxicity in mice

COC(=O)C1=C(C)NC(C)=C(C(=O)OC)C1c1ccccc1[N+](=O)[O-] [C]
LD50 (ip): 400 mg/kg
LD50 (po): 2000 mg/kg
